Experimental data: US20250235418A1, “Butyrate Analogues and Methods of Use for HIF Stabilization and Treatment of Bowel Disease” (THE REGENTS OF THE UNIVERSITY OF COLORADO, A BODY CORPORATE, priority 2022, published 2025)
Some entries share one result that the patent states for a list of compounds. At least one compound was matched to its structure with a doubt left.

Test system: c2bbe cells
Experiment: epithelial barrier formation by transepithelial electrical resistance (TEER)
Format: cell-based
Details: 5 mM, measured daily
Description: Barrier development in Caco-2 cells treated with Veh, BA or […] (5 mM); n=6. Data analyzed by Two-way ANOVA with Dunnett for post hoc correction and presented as mean±S.E.M, *p<0.05 **p<0.01, ***p<0.001, #BA, *MBA compared to veh in two independent experiments.
TEER of C2bbe cells exposed to 5 mM butyrate derivatives.
Therefore, we decided to study the effect of various butyrate derivatives in barrier function; in fact, sodium butyrate is an established pro-barrier factor. We studied epithelial barrier integrity through measurement of transepithelial electrical resistance (TEER), a typical assay for the quantitation of epithelial barrier strength. IEC c2bbe were exposed to butyrate derivatives (all at 5 mM) and TEERS were measured daily.

`O=C(O)CCCS` [MBA, 4-Mercaptobutyrate] was tested, and the “increase in barrier (TEER)” value was “up to 800 Ω*cm^2”.
